# In PubChem BioAssay AID493014 (National Center for Advancing Translational Sciences (NCATS), 2011):
# The whole screen tested about 340,000 compounds, of which about 170 (0.05%) were called active. The inconclusive results got no clear call from the source; some entries with a clear call stand among them for comparison. Calls come from the whole dose curve; as a rule, active = well fitted inhibition curve with a large enough effect in the signal ratio, with a control signal flat (not every such curve was filed as active); inconclusive = small, poorly fitted or top-dose-only effect, or effect the other way, or a change in a side signal; inactive = flat fitted curve, though single readings scatter; the % refers to the signal ratio. Potencies beside an inconclusive call are fits to weak or partial responses and may not hold up.
# Test: qHTS Assay to Find Inhibitors of Chronic Active B-Cell Receptor Signaling;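 for activity change, negative = inhibition: plate controls were basal doxycycline-induced cells for no effect and cells given 10 µM MG132 for full effect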
# Details: ABC-DLBCL IkBa-CBG/CBR reporter, luminescence ratio (green luciferase fused to IkBa over red control in TMD8 lymphoma cells), 4 h; activity change, negative = inhibition: at 46.1 µM (top of the series)
# Procedure, shortened: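 TMD8 ABC-DLBCL cells carrying doxycycline-inducible green luciferase fused to IkappaBalpha plus unfused red luciferase were exposed to compounds (up to 46 uM) for 4 hrs at 37C. Activity came from the overlap-corrected green/red luminescence ratio.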
# Potency is the fitted concentration of half-maximal effect.
Structure (SMILES),"activity change, negative = inhibition",Potency
Cc1ccc(Cl)cc1N1CCN(S(=O)(=O)N2CCCCC2)CC1,inactive,
O=C(c1ccc(S(=O)(=O)N2CCCCCC2)cc1)N1CCC(CN2C(=O)c3cccc4cccc(c34)C2=O)CC1,inactive,
N/C(=N\NC(=O)c1cccs1)c1cc2cc(Cl)ccc2oc1=O,inconclusive: -0.367%,
COc1ccc(/C=N/NC(=O)c2ccn[nH]2)cc1CN1CCOCC1,,"inconclusive: 11.2 µM [falling, partial curve, poor fit]"
CCCCCCCCNC(=S)NCCN1CCCCC1,,"inconclusive: 35.5 µM [falling, single point]"
O=C1OC(c2ccc(F)cc2)=N/C1=C\C=C/c1ccccc1,inconclusive: -11.4%,
COc1ccccc1Nc1nn2c(=O)c3ccc(C(=O)N4CCCC(C)C4)cc3nc2s1 (configuration not stated),inactive,
CCOc1ccc(/C=C/C(=O)c2c(O)c3ccccc3oc2=O)cc1,inconclusive: 276%,
COc1ccc(CN2CCN(C(=O)CCC(=O)Nc3nnc(CC(C)C)s3)CC2)cc1F,inactive,
O=C(NCC(c1cccs1)N1CCOCC1)c1cc(-c2ccccn2)nc2ccccc12 (configuration not stated),inconclusive: 5.86%,
COc1ccc(/C=C/C(=O)C(C)(C)C)cc1OC,inconclusive: 1.22%,
CCN1CCN(C(=O)c2ccc(CS(=O)(=O)Cc3ccccc3C)o2)CC1,inconclusive: 4.28%,
COc1ccccc1-n1cnc2cc(NCc3cccs3)ccc21,,"inconclusive: 6.51 µM [cytotoxic, single point]"
COc1ccc(NC(=O)c2cccc([N+](=O)[O-])c2)cc1,,"inconclusive: 3.16 µM [falling, full curve]"
COc1ccc(C2C(C#N)=C(N)Oc3n[nH]c(C)c32)cc1CSc1ccccn1 (configuration not stated),inconclusive: -6.84%,
CC(=O)c1ccc(OCc2cc(C(=O)N3CCCCCCC3)no2)cc1,inactive,
CCN(CC)CCCN=C1N[C@@H](c2ccccc2)C(C(=O)OC)=C(C)N1CC,,"inconclusive: 8.91 µM [falling, partial curve, poor fit]"
Cc1[nH]c2ccccc2c1SCCNC(=O)c1ccc(S(=O)(=O)N2CCCC2)cc1,,"inconclusive: 32.6 µM [falling, partial curve, poor fit]"
Cc1ccc(S(=O)(=O)CCC(=O)Nc2ccc(F)cc2)cc1,inconclusive: 2.48%,
Cc1ccc([N+](=O)[O-])cc1NC(=O)C[n+]1ccccc1,inconclusive: 5.14%,
CCOC(=O)COc1cc2c3c(c(=O)oc2cc1C)CCCC3,inactive,
Cc1cc(/C=N\NC(=O)c2cccs2)c(C)n1-c1ccc2ncccc2c1,,"inconclusive: 22.4 µM [falling, single point]"
Cn1c(-c2ccc3c(c2)OCO3)cnc1NCc1ccccc1Cl,inconclusive: -14.2%,
CC1=NN(C(=O)c2ccccc2Br)C(O)(c2ccc(Cl)cc2)C1 (configuration not stated),,"inconclusive: 2.51 µM [falling, partial curve, poor fit]"
CCc1ccc(C(=O)NN(C(=O)c2ccc(CC)cc2)C(C)(C)C)cc1,inconclusive: 5.34%,
CC(C)C1Nc2ccc(C(=O)NC3CCCCC3)cc2NC1=O (configuration not stated),,"inconclusive: 7.08 µM [rising, partial curve, poor fit]"

Structure (SMILES),"activity change, negative = inhibition",Potency
O=[N+]([O-])c1cccc(-c2nc(-c3ccncc3)no2)c1,inconclusive: 6.67%,
COc1ccc(NC(=O)CSc2nnc(NC(=O)Nc3ccccc3)s2)cc1OC,,"inconclusive: 0.794 µM [rising, full curve]"
COc1cccc(N2CCN(C(=O)c3cc4c(s3)CCCCC4)CC2)c1,inconclusive: -16.5%,
O=C1c2ccccc2NC(c2ccc(Br)o2)N1O (configuration not stated),inconclusive: 3.61%,
O=C(COc1ccccc1)Nc1nnc(-c2ccccc2)o1,,"inconclusive: 23.1 µM [falling, single point]"
O=C(O)c1ccc(N/N=C2/CCCc3ccccc32)cc1,inconclusive: 177%,
CN(C)CCNC(=O)c1nn(C)c2c1CCc1ccccc1-2,inactive,
Cc1cc2oc(C(=O)Nc3ccc(S(=O)(=O)Nc4onc(C)c4C)cc3)cc(=O)c2cc1Cl,inconclusive: -13.9%,
CSc1nc(N)c(C(=O)NC2CCCCC2)s1,,"inconclusive: 17.8 µM [falling, partial curve]"
Cc1c(C(=O)Oc2cccc3cccnc23)cccc1[N+](=O)[O-],,"inconclusive: 20 µM [falling, partial curve]"
Nc1ccc(C(=O)N2CCN(S(=O)(=O)c3ccc4c(c3)OCCO4)CC2)cc1[N+](=O)[O-],,"inconclusive: 15.8 µM [falling, single point]"
CC(=O)c1cccc(CN2CCN(C(C)C)C(CCO)C2)c1 (configuration not stated),inconclusive: 19.1%,
CCC(C)(C(=O)NC1CCCCC1)N(CC1CCCO1)C(=O)CNC(=O)c1ccccc1 (configuration not stated),inconclusive: 9.21%,
Cc1nn(-c2ccccc2)c(Cl)c1/C=C1\SC(=S)N(CCCCCC(=O)O)C1=O,inactive,
Cc1ncc([N+](=O)[O-])n1CCOC(=O)Nc1ccc(Cl)c(Cl)c1,inactive,
COc1ccc(NCC(=O)n2c(C)c(C)c3ccccc32)cc1,,"inconclusive: 15.8 µM [cytotoxic, partial curve]"
CCOC(=O)c1sc(NC(=O)c2ccncc2)c(C#N)c1C,inconclusive: 3.12%,
CCOc1ccc2cc(/C=C/C(=O)c3ccco3)c(Cl)nc2c1,,"inconclusive: 9.2 µM [rising, partial curve, poor fit]"
COc1cccc(-c2cc(C(F)(F)F)nc(N3CCCCC3)n2)c1,inconclusive: 9.19%,
Cn1ncc2c(O/N=C(\N)c3ccc(C(F)(F)F)cc3)ncnc21,inconclusive: 12.1%,
Cc1cccc(NC(=S)NNC(=O)c2ccc(O)cc2O)c1C,,"inconclusive: 20 µM [falling, partial curve]"
CC[C@]12c3[nH]c4cc(CCC(=O)N(C)C)ccc4c3CCN1C(=O)[C@@H](CC(=O)NC/C=C(\C)CCC=C(C)C)C[C@@H]2C(=O)N1CCN(C(=O)c2ccco2)CC1,,"inconclusive: 23.1 µM [falling, partial curve]"
Cc1cc(C)c(C#N)c(SCC(=O)c2cc(C)n(CCc3ccccc3)c2C)n1,inactive,
COc1ccc(-c2csc(N(C)C(=O)c3ccco3)n2)cc1,inconclusive: 0.367%,
CCn1c(SCC(=O)Nc2cccc(NC(=O)c3ccco3)c2)nnc1-c1cccs1,,"inconclusive: 20.6 µM [falling, partial curve]"
CCOc1ccc(NC(=O)CCc2nnc3ccc(N4CCC5(CC4)OCCO5)nn23)cc1,inconclusive: 3.07%,

Structure (SMILES),"activity change, negative = inhibition",Potency
Cc1ccc(OCc2cc(C(=O)N3CCC(Oc4cccnc4)CC3)no2)cc1C,,"inconclusive: 15.8 µM [falling, partial curve, poor fit]"
CC(C)CCNC(=O)CN1C(=O)CSc2ccc(S(=O)(=O)N3CCCCC3)cc21,inactive,
CCn1c(COc2ccc(OC)cc2)nc2ccccc21,inconclusive: 7.22%,
O=C(CCCN1C(=O)c2ccccc2C1=O)Nc1ccccc1,,"inconclusive: 8.91 µM [rising, partial curve]"
CCOC(=O)C1=C(C)NC(=O)NC1c1cccc(OC)c1OCc1ccccc1Cl (configuration not stated),,"inconclusive: 29.1 µM [falling, single point]"
Cc1ccc(-c2nnc(Nc3ccc(CC(N)=O)cc3)c3ccccc23)cc1S(=O)(=O)NCC1CCCO1 (configuration not stated),,"inconclusive: 14.1 µM [falling, single point]"
Oc1ccc(Nc2nc(-c3ccccc3O)nc3ccccc23)cc1,inconclusive: -17%,
Cc1ccccc1NC(=O)Cc1nc(-c2c[nH]c(C(=O)N3CCCC3)c2)cs1,inactive,
CCc1nc2ccccc2c(C(=O)OCC(=O)Nc2cccc(S(=O)(=O)NC3=NCCCCC3)c2)c1C,,"inconclusive: 35.5 µM [falling, single point]"
O=C1C(=O)N(c2ccccc2)c2ccccc21,inconclusive: -1.8%,
COc1ccc(S(=O)(=O)N2CCN(CCCOc3ccc(F)cc3)CC2)cc1OC,inactive,
C=CCN=C1N[C@@H](c2ccccc2)C(C(=O)OC)=C(C)N1CC,inactive,
Cc1cccn2c(=O)c3cc(C(=O)NC4CCCC4)c(=N)n(C4CCCCC4)c3nc12,inactive,
COCCSc1ccccc1C(=O)Nc1ccc(Br)cc1,inactive,
Cc1nc(-c2ccccc2)sc1C(=O)NN,,"inconclusive: 0.0708 µM [rising, full curve, poor fit]"
CCOc1ccc(N(C)S(=O)(=O)c2ccc(C)c(C(=O)Nc3nnc(C4CC4)s3)c2)cc1,inconclusive: -0.683%,
COc1cccc(OC)c1C(=O)NN1CCCCC1,inconclusive: 5.54%,
CC(C)(C)CC(=O)O/N=C(\N)c1ccccn1,,"inconclusive: 18.4 µM [falling, single point]"
O=C(Nc1ccc(N2CCOCC2)cc1)c1cccnc1,,"inconclusive: 18.4 µM [falling, partial curve]"
COc1cc2c(cc1OC)-c1cc(NC3CCCCC3)nc(=O)n1CC2,,"inconclusive: 15.8 µM [falling, single point]"
COc1ccc(COC(=O)c2sc3nc4n(c(=O)c3c2C)CCC4)cc1,inconclusive: 5.48%,
O=C(N/N=C/c1cc(Br)cs1)c1ccc2c(c1)OCCO2,inconclusive: -9.42%,
CCCc1nc(N2CCOCC2)c(C#N)c2c1CCCC2,inactive,
Cc1cccc(-n2ncc3c(NC4CCCCC4)ncnc32)c1,inconclusive: -13.7%,
Cc1ccc(C2=NN(S(C)(=O)=O)C(c3ccc4c(c3)OCO4)C2)cc1 (configuration not stated),inconclusive: 8.15%,

# Individual results from above:
# Potency, CCOC(=O)C1=C(C)NC(=O)NC1c1cccc(OC)c1OCc1ccccc1Cl (configuration not stated) is entered as inconclusive: 29.1 µM [falling, single point]
# activity change, negative = inhibition, O=C1C(=O)N(c2ccccc2)c2ccccc21 is entered as inconclusive: -1.8%
# activity change, negative = inhibition, COc1ccc(COC(=O)c2sc3nc4n(c(=O)c3c2C)CCC4)cc1 is entered as inconclusive: 5.48%
